{
  "source": "patent US6521751B1",
  "about": "“Recombinant nucleic acid sequences and methods for determining both genotoxicity and mutagenicity of a sample and the kinetics of the genotoxicity” (Vlaamse Instelling voor Technologisch Onderzoek (VITO), priority 1998, dated 2003)",
  "key": {"[1]": {"system": "TA 98 and TA104 strains containing pMOL1067 or pMOL1068"}, "[2]": {"system": "S. typhimurium TA100* containing pMOL890"}, "[3]": {"system": "S. typhimurium TA104 containing pMOL1069", "settings": "Salmonella typhimurium"}, "[4]": {"system": "S. typhimurium TA98 containing pMOL890", "settings": "Salmonella typhimurium"}, "[5]": {"system": "S. typhimurium TA104 containing pMOL890", "settings": "Salmonella typhimurium"}, "[6]": {"system": "S. typhimurium TA104 containing pMOL1066", "settings": "Salmonella typhimurium"}, "[7]": {"system": "S. typhimurium TA104 containing pMOL1068", "settings": "Salmonella typhimurium"}, "[8]": {"system": "S. typhimurium TA98 containing pMOL1068", "settings": "Salmonella typhimurium"}, "[9]": {"system": "S. typhimurium", "settings": "cited from earlier work"}, "[10]": {"system": "S. typhimurium TA98* containing pMOL890", "settings": "for Number of His^+ revertants: Furazolidone, TA98* (pMOL890)"}, "[11]": {"system": "S. typhimurium TA104 containing pMOL1067", "settings": "Salmonella typhimurium"}, "[12]": {"system": "S. typhimurium TA104* containing pMOL890"}, "[13]": {"system": "S. typhimurium TA98 containing pMOL1067", "settings": "Salmonella typhimurium"}, "[14]": {"system": "S. typhimurium TA1535* containing pMOL890", "settings": "for Number of His^+ revertants: Furazolidone, TA1535* (pMOL890)"}},
  "note": "Where “and” joins values, the source holds several entries; their conditions need not be identical. Equal values may be shown once. Read-outs that look alike come from different tables or passages of the source.",
  "data": [
    {"smiles": "O=C1OCCN1/N=C/c1ccc([N+](=O)[O-])o1", "note": "[Furazolidone]", "values": [
      {"measurement": "OUTCOME (genotoxicity, final outcome)", "setting": "[1]", "result": "pos"},
      {"measurement": "Conclusion (Ames test)", "setting": "[2]", "result": "+"},
      {"measurement": "Number of His^+ revertants", "setting": "[2]; Furazolidone, 0.1 mmol, TA100* (pMOL890)", "result": 108},
      {"measurement": "MINIMAL DETECTED CONCENTRATION (MDC)", "setting": "[3]", "result": 0.00044, "unit": "nmol/assay"},
      {"measurement": "MINIMAL DETECTED CONCENTRATION (MDC)", "setting": "[4]", "result": 0.00176, "unit": "nmol/assay"},
      {"measurement": "MINIMAL DETECTED CONCENTRATION (MDC)", "setting": "[5]", "result": 0.00176, "unit": "nmol/assay"},
      {"measurement": "MINIMAL DETECTED CONCENTRATION (MDC)", "setting": "[6]", "result": 0.00044, "unit": "nmol/assay"},
      {"measurement": "MINIMAL DETECTED CONCENTRATION (MDC)", "setting": "[7]", "result": 0.00022, "unit": "nmol/assay"},
      {"measurement": "MINIMAL DETECTED CONCENTRATION (MDC)", "setting": "[8]", "result": 0.00176, "unit": "nmol/assay"},
      {"measurement": "AMES (result)", "setting": "[9]", "result": "pos"},
      {"measurement": "MINIMAL DETECTED CONCENTRATION (MDC)", "setting": "[9]", "result": 0.1, "unit": "nmol/assay"},
      {"measurement": "Conclusion (Ames test)", "setting": "[10]", "result": "+"},
      {"measurement": "Number of His^+ revertants", "setting": "[10]; 0.1 mmol", "result": 8},
      {"measurement": "Number of His^+ revertants", "setting": "[10]; 1 mmol", "result": "20 and 14"},
      {"measurement": "Number of His^+ revertants", "setting": "[10]; 10 mmol", "result": 30},
      {"measurement": "MINIMAL DETECTED CONCENTRATION (MDC)", "setting": "[11]", "result": 0.00022, "unit": "nmol/assay"},
      {"measurement": "Conclusion (Ames test)", "setting": "[12]", "result": "+"},
      {"measurement": "MINIMAL DETECTED CONCENTRATION (MDC)", "setting": "[13]", "result": 0.00176, "unit": "nmol/assay"},
      {"measurement": "Conclusion (Ames test)", "setting": "[14]", "result": "+"},
      {"measurement": "Number of His^+ revertants", "setting": "[14]; 0.1 mmol", "result": 22},
      {"measurement": "Number of His^+ revertants", "setting": "[14]; 1 mmol", "result": 30}
    ]}
  ]
}
